The list shows a part of the results.
Legend:
Assay in all cases: log2 fold change, soluble protein after heating vs DMSO (PISA); higher = thermal stabilisation; K562 lysate, 10 uM; active = over 0.2 and 3.5 SD of the protein, either way, in both replicates (recomputed)
[1] = compound: NCC(=O)Nc1ccc(-n2nc(C(F)(F)F)cc2-c2ccc3c(ccc4ccccc43)c2)cc1
Outline: (§1)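 K562 pellets were dounce-homogenised in PBS pH 7.4 containing 1 mM MgCl2, and the crude extract, at 1 mg/mL protein, was exposed to 10 μM compound for 30 min. Aliquots were heated for 3 min across 48°C-58°C, pooled, brought to 0.5% NP-40 at 4°C and spun at 21,000xg for 90 min, with the supernatant taken as soluble protein. TMTpro 16plex LC-MS/MS with equalised channel sums quantified that protein. Values are log-two fold changes in thermal stability relative to solvent controls, taken from duplicates.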

The chains behind the UniProt entries cited, without tags or fusion partners. Where a name states a change or a piece, a line headed by the entry shows the natural chain unless it says otherwise.
UniProt Q15477, whole entry, looked up: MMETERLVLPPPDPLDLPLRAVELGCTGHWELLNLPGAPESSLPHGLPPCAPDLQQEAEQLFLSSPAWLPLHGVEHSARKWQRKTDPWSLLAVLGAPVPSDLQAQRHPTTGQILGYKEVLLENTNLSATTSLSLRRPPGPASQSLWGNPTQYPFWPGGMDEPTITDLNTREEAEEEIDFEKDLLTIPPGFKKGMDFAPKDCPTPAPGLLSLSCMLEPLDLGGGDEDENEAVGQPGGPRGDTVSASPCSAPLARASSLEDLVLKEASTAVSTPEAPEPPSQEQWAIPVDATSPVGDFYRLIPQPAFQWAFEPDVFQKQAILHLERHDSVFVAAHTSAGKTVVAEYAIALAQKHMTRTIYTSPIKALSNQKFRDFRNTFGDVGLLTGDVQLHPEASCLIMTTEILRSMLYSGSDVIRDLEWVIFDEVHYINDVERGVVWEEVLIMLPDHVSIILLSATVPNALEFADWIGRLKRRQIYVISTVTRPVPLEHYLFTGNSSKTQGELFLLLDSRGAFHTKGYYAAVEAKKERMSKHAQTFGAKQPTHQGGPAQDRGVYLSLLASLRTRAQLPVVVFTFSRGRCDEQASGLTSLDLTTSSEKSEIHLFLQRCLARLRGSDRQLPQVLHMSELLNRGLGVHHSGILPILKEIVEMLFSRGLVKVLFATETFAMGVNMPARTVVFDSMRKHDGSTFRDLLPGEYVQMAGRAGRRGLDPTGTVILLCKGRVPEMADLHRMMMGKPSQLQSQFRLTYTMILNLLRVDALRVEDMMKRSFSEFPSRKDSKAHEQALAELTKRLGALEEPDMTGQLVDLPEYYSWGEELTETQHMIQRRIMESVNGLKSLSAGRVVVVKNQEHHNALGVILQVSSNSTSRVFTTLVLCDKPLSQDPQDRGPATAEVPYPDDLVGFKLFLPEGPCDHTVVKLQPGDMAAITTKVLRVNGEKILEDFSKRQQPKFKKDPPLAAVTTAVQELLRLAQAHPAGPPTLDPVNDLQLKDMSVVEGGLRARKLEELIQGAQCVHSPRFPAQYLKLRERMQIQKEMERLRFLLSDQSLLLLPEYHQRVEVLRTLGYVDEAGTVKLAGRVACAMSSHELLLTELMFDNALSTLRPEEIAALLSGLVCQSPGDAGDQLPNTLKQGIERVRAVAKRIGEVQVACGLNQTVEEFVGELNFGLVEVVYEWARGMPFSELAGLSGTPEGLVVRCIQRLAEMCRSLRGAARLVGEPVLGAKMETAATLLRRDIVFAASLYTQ
UniProt Q15393: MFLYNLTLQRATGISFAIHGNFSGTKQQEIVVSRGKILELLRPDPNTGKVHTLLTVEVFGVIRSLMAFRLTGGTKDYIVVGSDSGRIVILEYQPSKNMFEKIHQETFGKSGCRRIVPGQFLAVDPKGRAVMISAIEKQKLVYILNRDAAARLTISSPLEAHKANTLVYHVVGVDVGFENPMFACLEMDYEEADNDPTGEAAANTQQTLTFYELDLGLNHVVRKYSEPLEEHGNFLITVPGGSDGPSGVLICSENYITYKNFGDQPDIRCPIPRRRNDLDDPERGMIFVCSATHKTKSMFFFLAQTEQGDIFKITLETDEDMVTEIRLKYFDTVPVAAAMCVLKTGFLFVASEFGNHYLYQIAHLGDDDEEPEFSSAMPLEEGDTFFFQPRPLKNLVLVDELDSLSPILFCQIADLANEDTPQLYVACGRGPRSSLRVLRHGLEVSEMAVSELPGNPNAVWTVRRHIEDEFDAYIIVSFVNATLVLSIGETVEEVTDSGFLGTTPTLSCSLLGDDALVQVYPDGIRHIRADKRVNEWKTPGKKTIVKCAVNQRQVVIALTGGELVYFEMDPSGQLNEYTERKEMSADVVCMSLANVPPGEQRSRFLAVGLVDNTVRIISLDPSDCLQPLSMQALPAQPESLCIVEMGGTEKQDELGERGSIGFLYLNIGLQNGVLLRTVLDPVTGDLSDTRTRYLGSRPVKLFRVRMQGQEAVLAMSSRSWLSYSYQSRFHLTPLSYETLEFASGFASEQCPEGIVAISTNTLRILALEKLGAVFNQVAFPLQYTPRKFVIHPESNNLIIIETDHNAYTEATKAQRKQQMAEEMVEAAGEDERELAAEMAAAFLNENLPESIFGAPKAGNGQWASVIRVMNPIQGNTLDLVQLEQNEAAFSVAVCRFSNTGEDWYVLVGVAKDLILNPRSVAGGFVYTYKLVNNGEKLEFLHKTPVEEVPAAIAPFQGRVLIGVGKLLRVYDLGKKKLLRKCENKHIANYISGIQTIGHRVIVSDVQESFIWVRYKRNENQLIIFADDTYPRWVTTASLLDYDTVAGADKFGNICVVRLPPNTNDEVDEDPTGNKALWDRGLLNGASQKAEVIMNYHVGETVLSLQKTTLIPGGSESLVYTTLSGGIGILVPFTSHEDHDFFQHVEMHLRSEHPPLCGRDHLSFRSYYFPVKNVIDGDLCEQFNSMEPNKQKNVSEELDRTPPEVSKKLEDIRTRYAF
UniProt Q86VZ5: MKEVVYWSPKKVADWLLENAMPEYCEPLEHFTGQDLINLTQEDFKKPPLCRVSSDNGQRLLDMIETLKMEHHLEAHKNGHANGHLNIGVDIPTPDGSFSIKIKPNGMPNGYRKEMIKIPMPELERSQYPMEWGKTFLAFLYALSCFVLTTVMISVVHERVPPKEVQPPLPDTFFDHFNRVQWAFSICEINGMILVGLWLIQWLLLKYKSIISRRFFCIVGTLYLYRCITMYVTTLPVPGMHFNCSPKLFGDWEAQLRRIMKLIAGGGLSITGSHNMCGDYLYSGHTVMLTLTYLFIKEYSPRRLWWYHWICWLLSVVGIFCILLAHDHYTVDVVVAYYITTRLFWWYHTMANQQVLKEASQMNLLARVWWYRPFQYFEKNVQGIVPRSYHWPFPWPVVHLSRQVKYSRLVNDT
UniProt P31947: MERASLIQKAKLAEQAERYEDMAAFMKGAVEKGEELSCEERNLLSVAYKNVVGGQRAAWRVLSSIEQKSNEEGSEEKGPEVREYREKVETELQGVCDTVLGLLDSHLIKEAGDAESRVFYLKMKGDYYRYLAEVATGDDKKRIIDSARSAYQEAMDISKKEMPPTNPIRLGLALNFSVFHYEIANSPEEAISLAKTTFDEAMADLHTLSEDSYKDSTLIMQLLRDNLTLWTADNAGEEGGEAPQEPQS
UniProt Q9NR46: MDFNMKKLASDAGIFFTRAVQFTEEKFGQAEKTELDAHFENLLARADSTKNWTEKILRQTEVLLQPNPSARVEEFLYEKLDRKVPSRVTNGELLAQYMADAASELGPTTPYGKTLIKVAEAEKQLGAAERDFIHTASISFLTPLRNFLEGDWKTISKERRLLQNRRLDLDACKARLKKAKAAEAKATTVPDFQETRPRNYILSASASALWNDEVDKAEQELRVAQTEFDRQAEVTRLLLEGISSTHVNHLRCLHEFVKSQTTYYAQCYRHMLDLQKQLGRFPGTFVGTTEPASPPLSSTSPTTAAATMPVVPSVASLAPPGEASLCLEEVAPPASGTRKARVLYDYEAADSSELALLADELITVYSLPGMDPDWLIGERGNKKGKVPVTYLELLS
UniProt Q9H299: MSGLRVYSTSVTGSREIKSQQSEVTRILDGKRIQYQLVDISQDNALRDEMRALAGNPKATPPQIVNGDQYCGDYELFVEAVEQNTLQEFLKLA
UniProt Q5FBB7: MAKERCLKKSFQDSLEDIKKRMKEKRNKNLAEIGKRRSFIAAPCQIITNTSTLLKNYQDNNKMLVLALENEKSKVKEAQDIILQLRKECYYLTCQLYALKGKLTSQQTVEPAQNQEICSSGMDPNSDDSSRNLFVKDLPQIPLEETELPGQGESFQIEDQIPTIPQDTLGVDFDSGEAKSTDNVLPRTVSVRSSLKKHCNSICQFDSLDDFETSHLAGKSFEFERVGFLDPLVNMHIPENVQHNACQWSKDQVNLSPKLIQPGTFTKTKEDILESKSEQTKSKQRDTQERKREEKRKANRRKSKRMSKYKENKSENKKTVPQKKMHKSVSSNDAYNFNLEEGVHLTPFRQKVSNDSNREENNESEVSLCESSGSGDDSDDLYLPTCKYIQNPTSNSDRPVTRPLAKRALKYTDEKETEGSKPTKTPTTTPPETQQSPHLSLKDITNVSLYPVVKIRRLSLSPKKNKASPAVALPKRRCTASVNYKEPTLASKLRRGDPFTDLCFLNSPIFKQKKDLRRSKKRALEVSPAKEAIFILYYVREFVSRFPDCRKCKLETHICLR
UniProt P63208, whole entry, looked up: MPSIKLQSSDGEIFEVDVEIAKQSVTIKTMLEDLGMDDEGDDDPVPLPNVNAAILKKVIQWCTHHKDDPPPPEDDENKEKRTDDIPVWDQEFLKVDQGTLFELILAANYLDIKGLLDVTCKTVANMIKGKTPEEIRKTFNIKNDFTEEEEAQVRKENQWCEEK
UniProt Q8TBC3: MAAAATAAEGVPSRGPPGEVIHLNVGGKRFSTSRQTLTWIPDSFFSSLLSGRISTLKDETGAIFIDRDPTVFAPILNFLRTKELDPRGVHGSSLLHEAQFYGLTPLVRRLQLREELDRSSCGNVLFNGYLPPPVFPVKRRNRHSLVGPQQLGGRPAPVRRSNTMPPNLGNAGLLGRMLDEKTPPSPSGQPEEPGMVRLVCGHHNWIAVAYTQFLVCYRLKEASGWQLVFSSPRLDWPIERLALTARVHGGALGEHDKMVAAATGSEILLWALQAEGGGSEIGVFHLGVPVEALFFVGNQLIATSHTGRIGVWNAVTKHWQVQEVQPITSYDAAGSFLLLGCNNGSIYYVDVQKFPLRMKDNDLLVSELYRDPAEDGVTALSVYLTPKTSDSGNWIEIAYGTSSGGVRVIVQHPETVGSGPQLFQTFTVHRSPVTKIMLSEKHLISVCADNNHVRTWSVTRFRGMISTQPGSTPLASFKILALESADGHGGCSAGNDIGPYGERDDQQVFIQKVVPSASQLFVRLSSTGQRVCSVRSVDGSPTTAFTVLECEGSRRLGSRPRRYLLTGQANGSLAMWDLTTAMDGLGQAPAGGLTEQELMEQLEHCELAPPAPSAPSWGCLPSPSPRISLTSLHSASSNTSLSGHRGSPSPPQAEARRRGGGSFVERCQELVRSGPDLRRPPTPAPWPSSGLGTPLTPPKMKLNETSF
UniProt Q8NBJ9: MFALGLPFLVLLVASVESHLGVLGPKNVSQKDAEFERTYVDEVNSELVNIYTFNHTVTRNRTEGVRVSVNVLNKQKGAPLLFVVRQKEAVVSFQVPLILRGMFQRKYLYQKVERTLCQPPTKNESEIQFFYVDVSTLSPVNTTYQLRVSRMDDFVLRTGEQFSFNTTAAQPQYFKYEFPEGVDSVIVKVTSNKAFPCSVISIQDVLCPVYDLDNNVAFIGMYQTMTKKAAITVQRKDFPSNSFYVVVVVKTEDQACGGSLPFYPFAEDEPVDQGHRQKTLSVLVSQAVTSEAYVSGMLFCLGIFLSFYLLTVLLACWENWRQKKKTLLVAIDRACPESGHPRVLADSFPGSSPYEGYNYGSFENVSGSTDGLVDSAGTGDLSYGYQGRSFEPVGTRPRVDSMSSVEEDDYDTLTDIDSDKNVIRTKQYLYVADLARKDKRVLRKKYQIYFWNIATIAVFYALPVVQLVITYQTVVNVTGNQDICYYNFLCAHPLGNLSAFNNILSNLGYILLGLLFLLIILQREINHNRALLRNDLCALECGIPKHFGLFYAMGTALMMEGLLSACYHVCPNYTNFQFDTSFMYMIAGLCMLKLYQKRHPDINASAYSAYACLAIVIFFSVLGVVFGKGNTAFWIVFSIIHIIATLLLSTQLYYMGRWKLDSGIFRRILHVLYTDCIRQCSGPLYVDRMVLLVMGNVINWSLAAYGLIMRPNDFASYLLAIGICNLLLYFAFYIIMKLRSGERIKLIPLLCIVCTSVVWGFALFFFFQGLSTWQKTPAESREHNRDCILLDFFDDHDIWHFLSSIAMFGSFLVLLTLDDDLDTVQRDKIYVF
UniProt Q15637: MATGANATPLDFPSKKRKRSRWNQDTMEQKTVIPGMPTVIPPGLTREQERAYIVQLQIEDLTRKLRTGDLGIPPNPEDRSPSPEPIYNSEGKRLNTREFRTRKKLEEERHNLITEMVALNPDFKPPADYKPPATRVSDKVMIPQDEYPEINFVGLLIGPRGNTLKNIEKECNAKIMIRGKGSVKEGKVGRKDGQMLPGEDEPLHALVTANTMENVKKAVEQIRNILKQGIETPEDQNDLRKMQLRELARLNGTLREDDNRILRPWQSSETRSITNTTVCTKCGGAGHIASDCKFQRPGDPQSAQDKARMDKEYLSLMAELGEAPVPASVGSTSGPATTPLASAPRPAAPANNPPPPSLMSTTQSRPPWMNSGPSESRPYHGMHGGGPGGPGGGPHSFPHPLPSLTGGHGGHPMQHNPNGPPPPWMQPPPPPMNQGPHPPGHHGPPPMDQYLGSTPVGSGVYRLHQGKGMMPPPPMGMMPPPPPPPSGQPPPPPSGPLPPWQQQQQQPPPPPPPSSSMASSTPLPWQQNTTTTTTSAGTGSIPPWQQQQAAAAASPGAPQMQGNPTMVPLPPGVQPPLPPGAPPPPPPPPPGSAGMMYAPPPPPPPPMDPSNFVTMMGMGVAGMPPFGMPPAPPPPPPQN

vorinostat = compound: O=C(CCCCCCC(=O)Nc1ccccc1)NO [vorinostat]
Outline: as §1

silmitasertib = compound: O=C(O)c1ccc2c(c1)nc(Nc1cccc(Cl)c1)c1ccncc12 [silmitasertib]
Outline: as §1

[2] = compound: O=C1NC(=O)C(c2cnc3ccccn23)=C1c1cn2c3c(cc(F)cc13)CN(C(=O)N1CCCCC1)CC2
Outline: as §1

entospletinib = compound: c1cn2cc(-c3ccc4cn[nH]c4c3)nc(Nc3ccc(N4CCOCC4)cc3)c2n1 [entospletinib]
Outline: as §1

Measured: log2 fold change

SIAH2 (UniProt O43255)
inactive: [1] -0.172 | vorinostat -0.052 | silmitasertib 0.052

SERPINB6, A0A087X1N8
inactive: [1] 0.014 | vorinostat 0.124 | silmitasertib -0.026 | [2] 0.001 | entospletinib -0.009

SIGMAR1 (UniProt Q99720)
inactive: [1] -0.012 | vorinostat 0.039 | silmitasertib -0.022 | [2] -0.008 | entospletinib -0.034

SGK3 (UniProt Q96BR1)
inactive: [1] 0.06 | vorinostat 0.04 | silmitasertib 0.236

SGTA (UniProt O43765)
inactive: [1] 0.003 | vorinostat 0.023 | silmitasertib 0 | [2] 0.009 | entospletinib 0.007

SHROOM1 (UniProt Q2M3G4)
inactive: [1] 0.013 | vorinostat -0.156 | silmitasertib 0 | [2] -0.04 | entospletinib 0.018

SLC22A18 (UniProt Q96BI1)
inactive: [1] -0.136 | vorinostat -0.044 | silmitasertib 0.006 | [2] 0.004 | entospletinib 0.013

SFXN5 (UniProt Q8TD22)
inactive: [1] -0.018 | vorinostat 0.126 | silmitasertib 0.064 | [2] 0.079 | entospletinib -0.025

SFXN2 (UniProt Q96NB2)
inactive: [1] -0.01 | vorinostat 0.133 | silmitasertib 0.013 | [2] -0.011 | entospletinib 0.023

SHMT1 (UniProt P34896)
inactive: [1] 0.004 | vorinostat 0.117 | silmitasertib -0.002 | [2] -0.019 | entospletinib 0

SKIV2L (UniProt Q15477)
inactive: [1] -0.128

SH3GLB1 isoform 2 (UniProt Q9Y371)
inactive: [1] -0.051 | vorinostat -0.189 | silmitasertib 0.008 | [2] -0.049 | entospletinib 0.023

SGPP1 (UniProt Q9BX95)
inactive: [1] 0.07 | vorinostat -0.153 | silmitasertib -0.094 | [2] -0.088 | entospletinib -0.038

SLC12A9 (UniProt Q9BXP2)
inactive: [1] 0.057 | vorinostat 0.179 | silmitasertib 0.111 | [2] 0.044

SINHCAF (UniProt Q9NP50)
inactive: [1] -0.557 | vorinostat -0.107 | silmitasertib -0.172 | [2] -0.026

SF3B3 (UniProt Q15393)
inactive: [1] 0.001 | vorinostat 0.069 | silmitasertib 0.005 | [2] 0.002 | entospletinib 0.011

SKOR2 (UniProt Q2VWA4)
inactive: [1] 0.105 | vorinostat 0.184 | silmitasertib 0.089 | [2] 0.182 | entospletinib -0.065

SH3GL1 (UniProt Q99961)
inactive: [1] -0.012 | silmitasertib 0 | [2] 0.009 | entospletinib -0.004
active: vorinostat -0.245

SERBP1 (UniProt Q8NC51)
inactive: [1] 0.014 | vorinostat 0.133 | silmitasertib -0.043 | [2] 0.004 | entospletinib 0.033

SERPINH1 (UniProt P50454)
inactive: [1] 0.026 | vorinostat 0.102 | silmitasertib 0.007 | [2] 0.009 | entospletinib 0.006

SETD1A (UniProt O15047)
inactive: [1] -0.006 | vorinostat -0.11 | silmitasertib -0.02 | [2] -0.011 | entospletinib -0.035

SLC18B1 (UniProt Q6NT16)
inactive: [1] 0.036 | vorinostat 0.064 | silmitasertib 0.026 | [2] -0.095

Three successive records already listed, for reference:
SERBP1 (UniProt Q8NC51)
inactive: [1] 0.014 | vorinostat 0.133 | silmitasertib -0.043 | [2] 0.004 | entospletinib 0.033

SERPINH1 (UniProt P50454)
inactive: [1] 0.026 | vorinostat 0.102 | silmitasertib 0.007 | [2] 0.009 | entospletinib 0.006

SETD1A (UniProt O15047)
inactive: [1] -0.006 | vorinostat -0.11 | silmitasertib -0.02 | [2] -0.011 | entospletinib -0.035

Continued.

SGMS1 (UniProt Q86VZ5)
inactive: [1] -0.012 | vorinostat -0.078 | silmitasertib -0.034 | [2] -0.179 | entospletinib -0.005

SH3BP2 isoform 4 (UniProt P78314)
inactive: [1] 0.08 | vorinostat -0.27 | silmitasertib 0.092 | [2] -0.017

SH3BP1 (UniProt Q9Y3L3)
inactive: [1] 0.12 | vorinostat 0.189 | silmitasertib -0.045 | [2] 0.036 | entospletinib -0.038

SERPINC1 (UniProt P01008)
inactive: [1] -0.112 | vorinostat 0.082 | silmitasertib -0.04 | [2] 0.093 | entospletinib -0.024

SLC20A1 (UniProt Q8WUM9)
inactive: [1] 0 | vorinostat 0.062 | silmitasertib -0.05 | [2] 0.021 | entospletinib 0.064

SF3A2 (UniProt Q15428)
inactive: [1] -0.048 | vorinostat -0.018 | silmitasertib 0.01 | [2] -0.024 | entospletinib -0.01

SIRT3 (UniProt Q9NTG7)
inactive: [1] 0.02 | vorinostat 0.083 | silmitasertib 0.015 | [2] 0.049

SFN (UniProt P31947)
inactive: [1] -0.001 | vorinostat 0.107 | silmitasertib -0.032 | [2] -0.026 | entospletinib 0.045

SETDB1 (UniProt Q15047)
inactive: [1] 0.051 | vorinostat 0.059 | silmitasertib -0.041 | [2] 0.005 | entospletinib -0.018

SKA3 (UniProt Q8IX90)
active: vorinostat -0.247
inactive: [1] -0.007 | silmitasertib 0 | [2] -0.022 | entospletinib 0.006

SH3GLB2 (UniProt Q9NR46)
inactive: [1] -0.036 | vorinostat -0.188 | silmitasertib 0.031 | [2] -0.039 | entospletinib -0.007

SLC10A7 isoform 1 (UniProt Q0GE19)
inactive: [1] 0.026 | vorinostat -0.098 | silmitasertib 0.015 | [2] 0.013 | entospletinib -0.047

SHMT2 (UniProt P34897)
inactive: [1] 0 | vorinostat 0.119 | silmitasertib 0.01 | [2] 0.013 | entospletinib 0.03

SLAIN2 (UniProt Q9P270)
inactive: [1] -0.005 | vorinostat -0.045 | silmitasertib -0.031 | [2] 0.02 | entospletinib 0

SH3BGRL3 (UniProt Q9H299)
inactive: [1] -0.096 | vorinostat 0.105 | silmitasertib 0.003 | [2] 0.001 | entospletinib -0.013

SIRT5 (UniProt Q9NXA8)
inactive: [1] -0.012 | vorinostat -0.031 | silmitasertib 0.124 | [2] -0.01 | entospletinib 0.045

SERPINB9 (UniProt P50453)
inactive: [1] 0.012 | vorinostat 0.085 | silmitasertib 0.008 | [2] 0.022 | entospletinib 0.021

SLC1A4 (UniProt P43007)
inactive: [1] 0.032 | vorinostat 0.036 | silmitasertib -0.022 | [2] -0.08 | entospletinib 0.001

SETD2 (UniProt Q9BYW2)
inactive: [1] 0.038 | vorinostat -0.04 | silmitasertib -0.027 | [2] 0.016 | entospletinib -0.013

SLC11A2 isoform 3 (UniProt P49281)
inactive: [1] -0.011 | vorinostat 0 | silmitasertib -0.047 | [2] 0.013 | entospletinib -0.054

SGO1 (UniProt Q5FBB7)
inactive: [1] 0.024 | vorinostat -0.114 | silmitasertib 0.049 | [2] 0.036 | entospletinib -0.046

SLC1A5 (UniProt Q15758)
inactive: [1] 0.014 | vorinostat 0.03 | silmitasertib -0.018 | [2] -0.033 | entospletinib 0

SKP1 (UniProt P63208)
inactive: [1] -0.018 | vorinostat 0.053 | silmitasertib -0.018 | [2] 0.038 | entospletinib -0.004

SH3BGR (UniProt P55822)
inactive: [1] -0.022 | vorinostat 0.09 | silmitasertib -0.028 | [2] -0.005 | entospletinib -0.008

SF3A3 (UniProt Q12874)
inactive: [1] -0.019 | vorinostat -0.242 | silmitasertib 0.065 | [2] -0.028 | entospletinib 0.001

SHKBP1 (UniProt Q8TBC3)
inactive: [1] -0.031 | vorinostat -0.069 | silmitasertib -0.06 | [2] 0.01 | entospletinib -0.218

SH2B3 (UniProt Q9UQQ2)
inactive: [1] 0.067 | vorinostat -0.017 | silmitasertib -0.104 | [2] 0.028 | entospletinib -0.111

SKAP2 (UniProt O75563)
inactive: [1] 0.041 | vorinostat -0.024 | silmitasertib -0.043 | [2] 0.01 | entospletinib -0.068

SERPINF1 (UniProt P36955)
inactive: [1] 0.047 | vorinostat 0.125 | silmitasertib 0.022 | [2] 0.016 | entospletinib -0.027

SFT2D2 (UniProt O95562)
inactive: [1] 0.011 | vorinostat 0.055 | silmitasertib 0.026 | [2] -0.193 | entospletinib 0.049

SIDT2 isoform 2 (UniProt Q8NBJ9)
inactive: [1] -0.056 | vorinostat 0.102 | silmitasertib -0.153 | [2] 0.036 | entospletinib -0.017

SF1 isoform 5 (UniProt Q15637)
inactive: [1] 0.029 | vorinostat 0.087 | silmitasertib -0.014 | [2] -0.022 | entospletinib -0.04

SH3BP5 (UniProt O60239)
inactive: [1] 0.014 | vorinostat 0.096 | silmitasertib -0.007 | [2] 0.01 | entospletinib 0.012

Source: the supplement of paper PMC10849652
